Experimental data published in PubChem BioAssay AID248 (DTP/NCI, 2004).
The list does not hold the whole screen: it is rich in T/C values a quarter to a half above the control, in often repeated tests (any T/C) and in doses without a T/C. Other doses and runs of a compound stand elsewhere. T/C is the treated group as % of the vehicle group. Some doses have a count of surviving animals in place of a T/C: the source holds a T/C of zero for them, seemingly a mark for toxic or unscored doses. Some survivor counts are full or nearly so, which does not show that the dose was tolerated: the source hardly ever lists a survival T/C far under the control, and the zero likely stands for such cases as well. Survivors were counted at the toxicity check, usually on the fifth day, unless a day is given; later deaths do not show. Schedules are NCI's codes, taken here to give the interval after Q, in days (D) or hours (H), and the number of doses after X. Some entries were tested several times; the values are given in rising order. Some schedules carry Z or #; the key to these is not given. Some molecules as drawn cover several salts, stereoisomers or complexes of the source; a dose is that of the sample tested. Signs of the kind (2×) count equal records among those shown. Where survival is the endpoint, this PubChem deposit counts one and a half times the control or more as active, and values a quarter to a half above the control carry no call in these data; other NCI protocols may use other cut-offs.

System: L1210 leukemia ip in BDF1 mice, survival T/C
Test: NCI In Vivo Anticancer Drug Screen. Data for tumor model L1210 Leukemia (intraperitoneal) in B6D2F1 (BDF1) mice
Settings: T/C endpoint: mean survival time, higher T/C = longer survival
[1] = dose: 200.0 mg/kg/injection, schedule: Q01DX001 (ip), vehicle: saline
[2] = dose: 400.0 mg/kg/injection, schedule: Q01DX001 (ip), vehicle: saline
[3] = dose: 400.0 mg/kg/injection, schedule: Q01DX009 (ip), vehicle: Klucel (hydroxypropylcellulose) (HPC)
[4] = dose: 25.0 mg/kg/injection, schedule: Q01DX009 (ip), vehicle: saline with Tween-80
[5] = dose: 50.0 mg/kg/injection, schedule: Q01DX009 (ip), vehicle: saline with Tween-80
[6] = dose: 100.0 mg/kg/injection, schedule: Q01DX009 (ip), vehicle: saline with Tween-80

CCCCCCCCCCCC[N+]1(C)CC[N+](C)(CCCCCCCCCCCC)CC1 (configuration not stated)
survivor count (dose: 400.0 mg/kg/injection, schedule: Q04DX002 (ip), vehicle: other): 3 of 3

CCCC1N(C)CCCN1C
survivor count (dose: 400.0 mg/kg/injection, schedule: Q04DX003 (ip), vehicle: saline with Tween-80): 0 of 6

OC1COC(n2cnc3c(=S)nc[nH]c32)CC1O (configuration not stated)
survivor count (dose: 80.0 mg/kg/injection, schedule: Q01DX001 (ip), vehicle: saline): 3 of 6
survivor count (dose: 100.0 mg/kg/injection, schedule: Q01DX001 (ip), vehicle: saline): 0 of 6
survivor count [1]: 2 of 6
survivor count [2]: 2 of 6

CCOC(=O)Nc1cc(NCCCCc2ccccc2)c(N)c(N)n1
survivor count (dose: 400.0 mg/kg/injection, schedule: Q01DX001 (ip), vehicle: saline with Tween-80): 0 of 6

CN(C)c1ccc(C=O)cc1[N+](=O)[O-]
survivor count [3]: 3 of 6

Cc1ccc(C(C)C)c(OCC(O)CN2CC=CCC2)c1 (configuration not stated)
survivor count (dose: 200.0 mg/kg/injection, schedule: Q04DX003 (ip), vehicle: saline): 1 of 6
survivor count (dose: 400.0 mg/kg/injection, schedule: Q04DX003 (ip), vehicle: saline): 0 of 6

CC(=O)CCNC1(c2ccccc2)CCCCC1
survivor count (dose: 400.0 mg/kg/injection, schedule: Q01DX001 (ip), vehicle: Klucel (hydroxypropylcellulose) (HPC)): 0 of 6

CN1CC2(Cc3ccccc3)c3ccccc3NC2(NC(=O)CCl)C1=O (configuration not stated)
survivor count (dose: 12.5 mg/kg/injection, schedule: Q04DX002 (ip), vehicle: saline with Tween-80): 3 of 3
survivor count (dose: 25.0 mg/kg/injection, schedule: Q04DX002 (ip), vehicle: saline with Tween-80): 3 of 3
survivor count (dose: 50.0 mg/kg/injection, schedule: Q04DX002 (ip), vehicle: saline with Tween-80): 3 of 3

c1cc[n+](Cc2nc3ccccc3[nH]2)cc1
survivor count [1]: 1 of 6 and 3 of 6
survivor count [2]: 0 of 6 (2×)

CC1=C(/C=C/C(C)=C/C=C/C(C)=C/C=O)C(C)(C)CCC1
survivor count (dose: 100.0 mg/kg/injection, schedule: Q01DX009 (ip), vehicle: steroid suspending solution): 5 of 6

O=C(O)/C=C/c1ccccn1
survivor count (dose: 400.0 mg/kg/injection, schedule: Q04DX003 (ip), vehicle: Klucel (hydroxypropylcellulose) (HPC)): 0 of 6

C=C(C)CSc1ncnc2nc[nH]c12
survivor count (dose: 180.0 mg/kg/injection, schedule: Q01DX Z (ip), vehicle: other): 3 of 6

O=C(Nc1cccc(C(F)(F)F)c1)N(CCO)Cc1ccccc1
T/C (dose: 100.0 mg/kg/injection, schedule: Q04DX002 (ip), vehicle: Klucel (hydroxypropylcellulose) (HPC)): 96, 97, 105, 125 % of control
T/C (dose: 200.0 mg/kg/injection, schedule: Q04DX002 (ip), vehicle: Klucel (hydroxypropylcellulose) (HPC)): 92, 99, 105 % of control (2×)
T/C (dose: 400.0 mg/kg/injection, schedule: Q04DX002 (ip), vehicle: Klucel (hydroxypropylcellulose) (HPC)): 96 (2×), 100, 102 % of control

CC(C)(C)NC(=O)NCCc1ccccc1
survivor count (dose: 100.0 mg/kg/injection, schedule: Q04DX003 (ip), vehicle: Klucel (hydroxypropylcellulose) (HPC)): 6 of 6
survivor count (dose: 200.0 mg/kg/injection, schedule: Q01DX009 (ip), vehicle: Klucel (hydroxypropylcellulose) (HPC)): 6 of 6

CN(C)C(=Nc1ccc(NC(=O)c2ccc(C(=O)Nc3ccc(N=C(Nc4ccccc4)N(C)C)cc3)cc2)cc1)Nc1ccccc1
survivor count (dose: 25.0 mg/kg/injection, schedule: Q01DX Z (ip), vehicle: water): 0 of 6
survivor count (dose: 50.0 mg/kg/injection, schedule: Q01DX Z (ip), vehicle: water): 0 of 6
survivor count (dose: 100.0 mg/kg/injection, schedule: Q01DX Z (ip), vehicle: water): 0 of 6

O=NN(CCCl)C(=O)NN1CCCCCC1
survivor count (dose: 60.0 mg/kg/injection, schedule: Q01DX001 (ip), vehicle: carboxymethylcellulose (CMC)): 0 of 6
survivor count (dose: 75.0 mg/kg/injection, schedule: Q01DX001 (ip), vehicle: carboxymethylcellulose (CMC)): 0 of 6
survivor count (dose: 150.0 mg/kg/injection, schedule: Q01DX001 (ip), vehicle: carboxymethylcellulose (CMC)): 0 of 6
survivor count (dose: 300.0 mg/kg/injection, schedule: Q01DX001 (ip), vehicle: carboxymethylcellulose (CMC)): 0 of 6

CC(C)c1ccc(N2C(=O)CSC2=S)cc1
survivor count (dose: 400.0 mg/kg/injection, schedule: Q04DX002 (ip), vehicle: saline with Tween-80): 3 of 3

CCOc1ccc(/C=N/NC(C)=O)cc1OC
survivor count (dose: 200.0 mg/kg/injection, schedule: Q01DX009 (ip), vehicle: saline with Tween-80): 2 of 3

CCCCCCCCCCCC[n+]1ccc(C)cc1C
survivor count (dose: 0.8 mg/kg/injection, schedule: Q04DX003 (ip), vehicle: saline): 1 of 6
survivor count (dose: 0.9 mg/kg/injection, schedule: Q01DX009 (ip), vehicle: saline): 0 of 6
survivor count (dose: 1.35 mg/kg/injection, schedule: Q01DX009 (ip), vehicle: saline): 1 of 6
survivor count (dose: 1.6 mg/kg/injection, schedule: Q04DX003 (ip), vehicle: saline): 1 of 6
survivor count (dose: 3.2 mg/kg/injection, schedule: Q04DX003 (ip), vehicle: saline): 3 of 6

O=C(O)c1cc(Cl)nc(Cl)c1
survivor count [3]: 2 of 6

O=C(NC(=S)Nc1cc(C(F)(F)F)ccc1Cl)c1ccccc1F
T/C [4]: 95 and 97 % of control
survivor count [4]: 3 of 3 and 6 of 6
T/C [5]: 88, 90, 96 % of control
survivor count [5]: 3 of 3
T/C [6]: 89 and 95 % of control
survivor count [6]: 3 of 3 and 6 of 6
survivor count (dose: 100.0 mg/kg/injection, schedule: Q04DX003 (ip), vehicle: saline with Tween-80): 6 of 6
survivor count (dose: 200.0 mg/kg/injection, schedule: Q04DX003 (ip), vehicle: saline with Tween-80): 6 of 6

C=C(C)C(=O)[O][Sn]([CH2]CCC)([CH2]CCC)[CH2]CCC
survivor count (dose: 1.56 mg/kg/injection, schedule: Q01DX009 (ip), vehicle: saline): 2 of 3
survivor count (dose: 3.12 mg/kg/injection, schedule: Q01DX009 (ip), vehicle: saline): 1 of 3
survivor count (dose: 6.25 mg/kg/injection, schedule: Q01DX009 (ip), vehicle: saline): 0 of 3
survivor count (dose: 12.5 mg/kg/injection, schedule: Q01DX009 (ip), vehicle: saline): 1 of 3
survivor count (dose: 25.0 mg/kg/injection, schedule: Q01DX009 (ip), vehicle: saline): 0 of 3
survivor count (dose: 50.0 mg/kg/injection, schedule: Q01DX009 (ip), vehicle: saline): 0 of 3
survivor count (dose: 100.0 mg/kg/injection, schedule: Q01DX009 (ip), vehicle: saline): 0 of 3

CS(=O)(=O)OCCN(CCOS(C)(=O)=O)c1ccc(N=O)cc1
T/C (dose: 0.31 mg/kg/injection, schedule: Q01DX Z (ip), vehicle: saline): 142 % of control
T/C (dose: 0.32 mg/kg/injection, schedule: Q01DX Z (ip), vehicle: carboxymethylcellulose (CMC)): 132 % of control
T/C (dose: 0.32 mg/kg/injection, schedule: Q01DX Z (ip), vehicle: saline): 130 % of control
T/C (dose: 0.5 mg/kg/injection, schedule: Q01DX001 (ip), vehicle: saline): 132 % of control
T/C (dose: 0.64 mg/kg/injection, schedule: Q01DX Z (ip), vehicle: carboxymethylcellulose (CMC)): 125 % of control
T/C (dose: 0.64 mg/kg/injection, schedule: Q01DX Z (ip), vehicle: saline): 127 % of control
T/C (dose: 1.0 mg/kg/injection, schedule: Q01DX001 (ip), vehicle: saline): 129 and 132 % of control
T/C (dose: 2.0 mg/kg/injection, schedule: Q01DX001 (ip), vehicle: saline): 135 % of control
survivor count (dose: 2.5 mg/kg/injection, schedule: Q01DX Z (ip), vehicle: saline): 2 of 6
survivor count (dose: 4.0 mg/kg/injection, schedule: Q01DX001 (ip), vehicle: saline): 6 of 6
survivor count (dose: 8.0 mg/kg/injection, schedule: Q01DX001 (ip), vehicle: saline): 5 of 6

Clc1ccc(CSc2ncc(Br)c(Nc3cc(Cl)ccc3Cl)n2)cc1
survivor count (dose: 25.0 mg/kg/injection, schedule: Q01DX Z (ip), vehicle: methylcellulose (MC)): 5 of 6
survivor count (dose: 100.0 mg/kg/injection, schedule: Q01DX Z (ip), vehicle: methylcellulose (MC)): 6 of 6
